Reference: CN114685656A
No constants are given. Whether binding was seen depends on the method and setting. Some entries that bind do so weakly or less than the wild type.

Protein sequences, listed by entry. Tags and fused reporters are not part of them. Residues count along the entry.
UniProt P78324, residues 31-370: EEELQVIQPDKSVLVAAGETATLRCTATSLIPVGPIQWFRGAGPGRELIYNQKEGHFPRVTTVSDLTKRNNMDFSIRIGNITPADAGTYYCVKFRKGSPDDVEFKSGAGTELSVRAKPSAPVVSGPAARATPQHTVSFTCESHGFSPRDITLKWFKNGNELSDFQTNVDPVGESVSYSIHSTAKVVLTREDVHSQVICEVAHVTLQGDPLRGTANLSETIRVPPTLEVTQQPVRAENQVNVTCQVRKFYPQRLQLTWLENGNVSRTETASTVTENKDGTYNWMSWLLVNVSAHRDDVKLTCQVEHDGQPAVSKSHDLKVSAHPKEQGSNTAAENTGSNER

What follows are binders tested against 重组hu-SIRPα-his (human) (UniProt P78324) (assay: ELISA on coated hu-SIRPα-his).

Binder	binding
36G4 (antibody, V domains shown) VH: EVQLVESGGGLVQPGGSLKLSCAASGFTFSNYGMSWVRQTPDKRLELVATINSNGGDTSYPDSVRGRFTISRDNAKNTLYLQMSSLKSEDTAMYYCTRGGWSWFAYWGQGTLVTVSA VL: DIVLTQSPTSLAVSLGQRATISCRASESADSYGNSYMNWYQQKPGQPPKLLIYLASNLESGVPARFSGSGSRTDFTLTIDPVEADDAATYYCQQINEDPYTFGGGTKLEIK	binds
36D6 (antibody, V domains shown) VH: EVQLQESGPELKKPGETVKISCKASGYTFTKYGMNWVKQAPGKGLKWLAWINTDTGEAKYSDDFKGRFAFSLETSASIVYLQINNLKNEDTATYFCARGESYSNYVRFVYWGQGTTVTVSS VL: DIVMTQSHKFMSTSVGDRVSITCKASQDVNTAVAWYQQKAGHSPKLLIYWTSTRHTGVPDRFTGSGSGTDYTLTISSVQAEDLTLYYCQQHYSTPWTFGGGTKLEIK	binds

Second part, the binder after the results:

binding	Binder
binds	52B3 (antibody, V domains shown) VH: EVQLQQSGAELVRSGASVKMSCKASDYTFTSYNLHWVKQTPGQGLEWIGYIYPGNGNTKYSQKFKGKATLTADTSSSTAYMQISSLTSEDSAVYFCTRNYDYYFYTMGYWGQGTTVTVSS VL: DIVLTQSPKFMSTSVGDRVNITCKASQDVCTAVAWYQQKPGQSPKLLIYSASYRYTGVPDRFTGSGSRTDFTFTISSVQAEDLAVYYCQQHYSTPLTFGAGTKLELK
binds	40F3 (antibody, V domains shown) VH: QVQLQQPGAELGKPGASVKLSCKASGYTFSSYYIYWLKQRPGQGLEWIGGINPSNDDTHLTEKFKSKATLIADRSSSTAYIQLSSLTSEDSAVYYCTRSYYANSWFAYWGQGTLVTVSA VL: DIVLTQSPLSLPVSLGDQASISCRSSQTIVHSNGNTYLAWYLQKPGQSPKLLIYKVSNRFSGVPDRFSGSGSGTEFTLKISRVEAEDLGVYYCFQGSHVPYTFGGGTKLEIK
